For some assays here: One purity is given for all peptides; the source may state it once.
Tests used:
[1] = general procedure: Fmoc solid-phase peptide synthesis; 2-Cl-Trt resin (degree of substitution 0.5 mmol/g); conditions: whole synthesis; for final HPLC purity: HPLC area integration
[2] = general procedure: Fmoc solid-phase peptide synthesis; 2-Cl-Trt resin; conditions: whole synthesis, scale 0.5 mmol
[3] = scale of the general procedure 0.5 mmol
[4] = on 0.5 mmol 2-Cl-Trt resin used, scale 0.5 mmol
[5] = calculated on the basis of 0.5 mmol 2-Cl-Trt resin used, scale of the general procedure 0.5 mmol

Substance	crude mass [1]	isolated mass [1]	final HPLC purity [1, 3]	isolated yield [1, 4]	crude yield [1, 3]	isolated yield [1, 5]	crude mass [2]
3-oxooctanoyl-Dab-Thr-Dab-ring(4-10) [Dab-Dab-D-Phe-Lue--Dab-Dab-Thr]	540 mg	245 mg	>99.0%	40.7%	89.8%		
4-phenoxybenzoyl-Dab-Thr-Dab-ring (4-10) [Dab-Dab-D-Phe-Lue-Dab-Dab-Thr]	570 mg	280 mg	>99.0%	44.5%	90.5%		
6-methoxyhexanoyl-Dab-Thr-Dab-ring(4-10) [Dab-Dab-D-Phe-Lue-Dab-Dab-Thr]	530 mg	238 mg	>99.0%	40.0%	89.0%		
(S)-6-methyloctanoyl-Dab-Thr-Dab-ring (4-10) [Dab-Dab-D-Phe(4-Cl)-Lue-Dab-Dab-Thr]	560 mg	250 mg	>99.0%	40.4%	90.5%		
(S)-6-methyloctanoyl-Dab-Thr-Dab-ring(4-10) [Dab-Dab-D-Phe(4-CH3)-Lue-Dab-Dab-Thr]	550 mg	250 mg	>99.0%	41.1%	90.3%		
N, N-dimethylaminovaleryl-Dab-Thr-Dab-ring(4-10) [Dab-Dab-D-Phe-Lue-Dab-Dab-Thr]	530 mg	240 mg	>99.0%	40.3%	89.1%		
Octanoyl-Dab-Thr-D-Dab-ring(4-10) [Dab-Dab-D-Leu-Thr-Dab-Dab-Thr]	520 mg	248 mg	>99.0%	43.4%	91.0%		
Octanoyl-Dab-Thr-D-Ser-Ring(4-10) [Dab-Dab-D-Leu-Thr-Dab-Dab-Thr]	510 mg	230 mg	>99.0%	40.7%	90.2%		
Octanoyl-Dab-Thr-D-Ser-ring(4-10) [Dab-Dab-D-Phe--Thr-Dab-Dab-Thr]		240 mg	>99.0%		91.0%	41.2%	530 mg
Octanoyl-Dab-Thr-Dab-rin(4-10) [Dab-Dab-D-Phe-Leu-Dab-Dab-Thr]	540 mg	240 mg	>99.0%	40.4%	90.8%		
Octanoyl-Dab-Thr-Dab-ring(4-10) [Dab-Dab-D-Leu-Leu-Dab-Dab-Thr]	540 mg	240 mg	>99.0%	41.5%	93.5%		
Octanoyl-Dab-Thr-Dab-ring(4-10) [Dab-Dab-D-Leu-Thr--Dab-Dab-Thr]	525 mg	250 mg	>99.0%	43.7%	91.8%		
octanoyl-Dab-Thr-Dab-ring(4-10) [Dab-Dab-D-Phe-Leu--Dab-Dab-Leu]		250 mg	>99.0%		91.6%	41.6%	550 mg
